Reference: PubChem BioAssay AID1259415 (National Center for Advancing Translational Sciences (NCATS), 2018)
“And” between values parts separate entries of the source, which are not always exact repeats. Equal entries are not always repeated. The campaign covered roughly 410,000 compounds. About 18,000 (4.4%) were called active. Inconclusive means that the source gave no clear call. Such entries were picked first, then a sample of the others. Cut-off read from the data, not from the text of the source: active = activity change below about -60%; inconclusive = no clear call, values can overlap the other calls; inactive = above about -39%. Where a SMILES comes first, the peptide text is derived from it. The star is where a group is joined. Cbz = O=C(OCc1ccccc1)*; Boc = CC(C)(C)OC(=O)*

assay: qHTS Assay for inhibitors of the human cytomegalovirus (HCMV); conditions: HFF cells, HCMV-luciferase reporter, 72 h; at 57.5 µM; hits give low values
Summary of the method: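 Screen run at 2 compound doses on HFFs infected with reporter HCMV, MOI 1 PFU/cell. Luciferase activity from cell lysates at 72 h post infection gave inhibition relative to buffer-only and Salinomycin wells.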
% is set by controls: 0 for no effect and ±100 for the full control effect.

SMILES | activity change, negative = inhibition
CCN(C(=O)COC(=O)COc1ccc2c(C)cc(=O)oc2c1)C1CCS(=O)(=O)C1 (stereo unspecified) | inconclusive: -48.2%
Cc1occc1-c1nnc(SCC(=O)c2ccccc2)n1CC1CCCO1 (stereo unspecified) | inactive: 43.7%
COc1ccc2nc(NC(=O)C3CCCN3S(=O)(=O)c3ccc(C)cc3)sc2c1 (stereo unspecified) | inactive: -35.2%
CCOC(=O)C1=CCCN(S(=O)(=O)c2ccc(C)cc2)C1 | inactive: -9.06%
CCOC(=O)/C=C/C(=O)Nc1cc(S(=O)(=O)Nc2ccc(OC)cc2)ccc1N1CCOCC1 | inactive: -29.1%
Cc1ccc(CN2CCSc3ccc(C(=O)NCc4ccco4)cc32)cc1 | inconclusive: -59.8%
COc1ccccc1N1CCN(S(=O)(=O)c2c(C)sc3ncn(CC(=O)Nc4ccccc4F)c(=O)c23)CC1 | inactive: -0.104%
O=C(CCN1C(=O)c2ccccc2C1=O)NNC(=O)c1ccc(Cl)cc1Cl | inconclusive: -41.6%
CCc1cc2c(SCC(=O)N3CCCC3=O)ncnc2s1 | inactive: 13.1%
COC(=O)c1c(N)n(-c2cc(Cl)cc(Cl)c2)c2nc3ccccc3nc12 | inactive: -6.68%
O=S1(=O)N[C@H](Cc2ccccc2)COc2cccc(N3CCC[C@@H]3CO)c21 | inactive: -11.9%
CCOc1ccc(-c2nc(CSc3nnc(N)s3)cs2)cc1OC | inactive: 83.1%
O=C(CC(=O)N/N=C/c1ccccc1)NCc1ccccc1 | inconclusive: -54.7%
Cc1ccc2cc3cc(C(=O)N(CC(=O)NC4CCCC4)c4cccc(C)c4C)sc3nc2c1 | inconclusive: -50.7%
Cc1ccccc1CN1C(=O)c2ccccc2Sc2ccc(C(=O)NCc3cccs3)cc21 | inconclusive: -50.1%
Nc1c(-c2nc(-c3ccncc3)no2)nnn1CC(=O)Nc1ccccc1 | inconclusive: -50.4%
COc1ccc(NC(=O)CSCC(=O)N(C)CC(=O)Nc2c(C)cccc2C)cc1 | active: -102%
CCOc1ccccc1C(=O)NCCc1cnc[nH]1 | inconclusive: -59%
CCOC(=O)/C=c1\s/c(=C\c2c(OC)ccc3ccccc23)c(=O)n1CC(=O)NCC1CCCO1 (stereo unspecified) | active: -94.7%
CCOC(=O)N/N=C/c1cn(Cc2ccc(Cl)cc2)c2ccccc12 | inconclusive: -47.1%
Cc1cccc(NC(=O)c2ccccc2SCc2ccc(F)cc2)n1 | inconclusive: 0%
COc1cc(C(=O)Nc2cc(-c3nc4cc(C)ccc4o3)ccc2C)cc(OC)c1OC | inactive: 7.78%

SMILES | activity change, negative = inhibition
O=C(NCc1nc2cccnc2n1Cc1ccc(F)cc1)c1ccccc1C(F)(F)F | active: -60.6%
COc1cccc(Nc2nc3ccc(C(=O)c4ccccc4)cc3n3cnnc23)c1 | inconclusive: -58.2%
Cc1c(C(=O)Nc2ccncc2)sc2nc(-c3ccc(F)cc3)cn12 | inconclusive: -49.5%
Nc1ncnc2c1ccn2[C@@H]1O[C@H](CO)[C@@H](O)[C@H]1O | active: -106%
COc1ccc2c(c1)CC/C(=C\C=C\c1ccccc1OC)C2=O | inactive: 12.7%
CC(=O)Nc1ccc(OCCOc2ccc(/C=C3/C(=N)N4C=CSC4=NC3=O)cc2)cc1 | inconclusive: -40.3%
O=S(=O)(c1ccccc1)c1nc(NC2CC2)sc1Cl | inconclusive: -46.4%
COc1ccc(Cc2nc3c4c(ncn3n2)Oc2c(ccc3ccccc23)C4c2ccc(OC)c(OC)c2)cc1 (stereo unspecified) | inconclusive: -40.6%
OCCC1CN(Cc2cnn(-c3ccccc3Cl)c2)CCN1Cc1ccsc1 (stereo unspecified) | inconclusive: -56.5%
COc1ccc(Cl)cc1NC(=O)CCC(=O)N1CCOc2ccccc21 | inactive: -21.5%
CCC(=O)N(C)C[C@H]1Oc2cc(-c3cccnc3)ccc2S(=O)(=O)N([C@H](C)CO)C[C@H]1C | inactive: -1.44%
CCOc1ccc(C2C3=C(CC(C)(C)CC3=O)N(CCCOC)C3=C2C(=O)CC(C)(C)C3)cc1OC | inactive: 2.04%
CC1Cc2nc(SCC(=O)Nc3ccc(F)cc3)n(C)c(=O)c2S1 (stereo unspecified) | inconclusive: -41%
CC(C)CCn1nnnc1CN1CCN(C(c2ccccc2)c2ccccc2)CC1 | inactive: -36.8%
COc1ccc(CN(C)C(=O)[C@H]2O[C@@H](n3ccc(N)nc3=O)[C@H](O)[C@@H]2O)cc1OC | inactive: -7.03%
Cc1ccc(-n2c(C)cc(/C=N/NC(=O)c3ccc(CN4CCOCC4)cc3)c2C)cc1 | inconclusive: -51.7%
Cc1ccc(COc2ccc(/C=N/NC(=O)c3nnn(-c4nonc4N)c3COc3ccc(F)cc3)cc2)cc1 | inactive: -2.7%
CN1C(=O)C(CC(=O)Nc2ccc(F)cc2)N(CCCc2ccccc2)C1=S (stereo unspecified) | inconclusive: -45.4%
CC(C)(C)OC(=O)C(C(=O)OC(C)(C)C)c1ccc(Cl)nn1 | inconclusive: -57.4%
Cc1ccc(OCC(=O)N2N=C(C(F)(F)F)CC2(O)C(C)(C)C)cc1C (stereo unspecified) | active: -90.8%
CCn1c(=O)c(=O)n(CC)c2cc(N3CCCCC3)c(NC(=O)c3cccc(F)c3)cc21 | inactive: -12.9%
CC(C)(C)OC(=O)NCCCC[C@H](NC(=O)[C@H](Cc1c[nH]c2ccccc12)NC(=O)OCc1ccccc1)C(=O)O (Cbz-Trp-Lys(Boc)-OH) | inconclusive: -44.6%

Given tab-delimited: entries from further up.
SMILES	activity change, negative = inhibition
O=C(CC(=O)N/N=C/c1ccccc1)NCc1ccccc1	inconclusive: -54.7%
Cc1ccc2cc3cc(C(=O)N(CC(=O)NC4CCCC4)c4cccc(C)c4C)sc3nc2c1	inconclusive: -50.7%
Cc1ccccc1CN1C(=O)c2ccccc2Sc2ccc(C(=O)NCc3cccs3)cc21	inconclusive: -50.1%
Nc1c(-c2nc(-c3ccncc3)no2)nnn1CC(=O)Nc1ccccc1	inconclusive: -50.4%
COc1ccc(NC(=O)CSCC(=O)N(C)CC(=O)Nc2c(C)cccc2C)cc1	active: -102%
CCOc1ccccc1C(=O)NCCc1cnc[nH]1	inconclusive: -59%
CCOC(=O)/C=c1\s/c(=C\c2c(OC)ccc3ccccc23)c(=O)n1CC(=O)NCC1CCCO1 (stereo unspecified)	active: -94.7%
CCOC(=O)N/N=C/c1cn(Cc2ccc(Cl)cc2)c2ccccc12	inconclusive: -47.1%
Cc1cccc(NC(=O)c2ccccc2SCc2ccc(F)cc2)n1	inconclusive: 0%
COc1cc(C(=O)Nc2cc(-c3nc4cc(C)ccc4o3)ccc2C)cc(OC)c1OC	inactive: 7.78%
O=C(NCc1nc2cccnc2n1Cc1ccc(F)cc1)c1ccccc1C(F)(F)F	active: -60.6%
COc1cccc(Nc2nc3ccc(C(=O)c4ccccc4)cc3n3cnnc23)c1	inconclusive: -58.2%
Cc1c(C(=O)Nc2ccncc2)sc2nc(-c3ccc(F)cc3)cn12	inconclusive: -49.5%
Nc1ncnc2c1ccn2[C@@H]1O[C@H](CO)[C@@H](O)[C@H]1O	active: -106%
COc1ccc2c(c1)CC/C(=C\C=C\c1ccccc1OC)C2=O	inactive: 12.7%
CC(=O)Nc1ccc(OCCOc2ccc(/C=C3/C(=N)N4C=CSC4=NC3=O)cc2)cc1	inconclusive: -40.3%
O=S(=O)(c1ccccc1)c1nc(NC2CC2)sc1Cl	inconclusive: -46.4%
COc1ccc(Cc2nc3c4c(ncn3n2)Oc2c(ccc3ccccc23)C4c2ccc(OC)c(OC)c2)cc1 (stereo unspecified)	inconclusive: -40.6%
OCCC1CN(Cc2cnn(-c3ccccc3Cl)c2)CCN1Cc1ccsc1 (stereo unspecified)	inconclusive: -56.5%

Going on with the list.

SMILES | activity change, negative = inhibition
Cc1ccc(NC(=O)Nc2ccc(F)cc2F)c(OC(F)F)c1 | inconclusive: -41%
COc1ccc(C)cc1NS(=O)(=O)c1ccc2c(c1)n(C)c(=O)n2C | inactive: 4.65% and inactive: -5.77%
N#Cc1c(N)c2ccccn2c1C(=O)c1ccc(Br)cc1 | inconclusive: -43.3%
CC1CN(C(=O)c2cc3cc([N+](=O)[O-])ccc3s2)CC(C)O1 (stereo unspecified) | inconclusive: -44.6%
CC1N=C(N)C(c2nc3ccccc3n2C)=C1O (stereo unspecified) | inconclusive: -56%
Cc1ccc(S(=O)(=O)Nc2cccc(C(=O)N3CCOCC3)c2)cc1 | inconclusive: -51.2%
CC(C)c1[nH]nc2c1C(c1cccnc1)C(C#N)=C(N)O2 (stereo unspecified) | inconclusive: -57.5%
CC(NC(=O)CCCCCNC(=O)N1CCn2c1nc1ccccc12)c1ccccc1 (stereo unspecified) | active: -73.3%
C[C@H]1CN([C@@H](C)CO)C(=O)c2cc(Br)cnc2O[C@@H]1CN(C)C(=O)c1ccncc1 | inactive: -10.2%
COc1ccc(N2CCN(c3ncnc4scc(-c5ccc(C)cc5)c34)CC2)cc1 | active: -64.1%
Cc1ccc(OCC(=O)c2cc(C)n(Cc3ccco3)c2C)c([N+](=O)[O-])n1 | active: -78.9%
CC1=C(C(=O)Nc2ccccc2)C(c2cccs2)n2nc(SCc3ccccc3F)nc2N1 (stereo unspecified) | inactive: 0.683%
Clc1ccc(-n2nnnc2Sc2ncnc3sccc23)cc1 | active: -81.1%
Cc1c(C)[n+](=O)c2c(n1[O-])C(Br)CCC2Br (stereo unspecified) | inactive: 27.5%
CCN(CC)C(=O)Cn1cc(SCC(=O)NC)c2ccccc21 | inconclusive: -49.7%
COc1ccccc1C(=O)COC(=O)Cc1c[nH]c2ccccc12 | inactive: -20.6%
CSc1ccc(C(=O)C2CCCN(C(=O)CCc3c(C)nn(C)c3C)C2)cc1 (stereo unspecified) | active: -63.3%
C=C(C)CNC(=S)N/N=C/c1c(F)cccc1F | inconclusive: -56.4%
CCOc1ccccc1NC(=O)c1cnn2c(C(F)F)cc(-c3ccccc3)nc12 | inconclusive: -54.6%
Cc1[nH]nc(SCC(=O)NCc2ccccc2)c1[N+](=O)[O-] | inconclusive: -47%
CCc1ccc(N2C(=O)C3C4C=CC(CC4)C3C2=O)cc1 (stereo unspecified) | inactive: -8.41%
COC(=O)c1c(Cc2ccccc2Cl)c[nH]c1C | active: -67.2%

SMILES | activity change, negative = inhibition
COc1cccc(CCNC(=O)c2c(O)nc3ccccn3c2=O)c1 | inconclusive: -41.6%
Cc1ccc2cc(C#N)c(NCc3ccco3)nc2c1 | inconclusive: -57.7%
Cc1ccc(C)c(Nc2ccc3nonc3c2[N+](=O)[O-])c1 | active: -87.2%
CCOc1ccc2oc(C(=O)OCC(=O)NC3CCCCC3)c(C)c2c1 | inactive: -14.9%
COc1ccc(-c2n[nH]c(C)c2-c2ccccc2OC)c(O)c1 | inconclusive: -49%
CCOC(=O)c1ccc(NC(=S)NCCCN2CCN(C3CCCCC3)CC2)cc1 | inconclusive: -40.6%
C/C=C/C(=O)OCC(=O)Nc1cc([N+](=O)[O-])ccc1Cl | inconclusive: -46.7%
CCc1sc(Nc2cccc(C)c2C)nc1-c1cc2cccc(OC)c2oc1=O | inactive: 8.57%
C=CCc1cccc(/C=N/NC(=O)c2ccccc2Br)c1O | active: -99.1%
Cc1ccnc2nc(C(=O)OCC(=O)N(C)C3CCCCC3)nn12 | inconclusive: -51.5%
Cc1c(C(=O)O)[nH]c2c1C(=O)CC(c1ccc(Cl)cc1)C2 (stereo unspecified) | inconclusive: -42.8%
CN(Cc1ccc(F)cc1)C(=O)COc1ccccc1-c1ccccc1 | inconclusive: -41.4%
CC(=O)c1cc(C)ccc1OC(=O)CN1C(=O)c2ccccc2C1=O | inactive: 25.9%
CCCCSc1nsc(NC(C)=O)n1 | inactive: 46%
CCOC(=O)c1sc(Nc2nc3ccc(OC)cc3s2)cc1C | inconclusive: -47.8%
COc1ccccc1C(=O)NCCC(=O)N1CCCCC1 | inactive: -20.6%
O=C(Nn1cnc2ccccc2c1=O)c1cccc(Cl)c1 | inactive: -9.42%
Cc1cccc(C(=O)NCCC(=O)Nc2nc(C)c(Cc3ccc4c(c3)OCO4)s2)c1 | inconclusive: -49.7%
COc1ccc(NC(=O)N(C)C[C@H]2Oc3ccc(NS(=O)(=O)c4ccc(OC)cc4)cc3C(=O)N([C@H](C)CO)C[C@@H]2C)cc1 | inconclusive: -45.9%
CCOC(=O)c1cccc(NC(=O)CCn2nc(C)c(S(=O)(=O)N3CCCCC3)c2C)c1 | inconclusive: -50.1%
